Earlier results as cited in article PMC2748165 (Biochemical pharmacology, 2009).

Chains of the proteins cited; added tags and fusions are not shown.
UniProt P08183, whole entry: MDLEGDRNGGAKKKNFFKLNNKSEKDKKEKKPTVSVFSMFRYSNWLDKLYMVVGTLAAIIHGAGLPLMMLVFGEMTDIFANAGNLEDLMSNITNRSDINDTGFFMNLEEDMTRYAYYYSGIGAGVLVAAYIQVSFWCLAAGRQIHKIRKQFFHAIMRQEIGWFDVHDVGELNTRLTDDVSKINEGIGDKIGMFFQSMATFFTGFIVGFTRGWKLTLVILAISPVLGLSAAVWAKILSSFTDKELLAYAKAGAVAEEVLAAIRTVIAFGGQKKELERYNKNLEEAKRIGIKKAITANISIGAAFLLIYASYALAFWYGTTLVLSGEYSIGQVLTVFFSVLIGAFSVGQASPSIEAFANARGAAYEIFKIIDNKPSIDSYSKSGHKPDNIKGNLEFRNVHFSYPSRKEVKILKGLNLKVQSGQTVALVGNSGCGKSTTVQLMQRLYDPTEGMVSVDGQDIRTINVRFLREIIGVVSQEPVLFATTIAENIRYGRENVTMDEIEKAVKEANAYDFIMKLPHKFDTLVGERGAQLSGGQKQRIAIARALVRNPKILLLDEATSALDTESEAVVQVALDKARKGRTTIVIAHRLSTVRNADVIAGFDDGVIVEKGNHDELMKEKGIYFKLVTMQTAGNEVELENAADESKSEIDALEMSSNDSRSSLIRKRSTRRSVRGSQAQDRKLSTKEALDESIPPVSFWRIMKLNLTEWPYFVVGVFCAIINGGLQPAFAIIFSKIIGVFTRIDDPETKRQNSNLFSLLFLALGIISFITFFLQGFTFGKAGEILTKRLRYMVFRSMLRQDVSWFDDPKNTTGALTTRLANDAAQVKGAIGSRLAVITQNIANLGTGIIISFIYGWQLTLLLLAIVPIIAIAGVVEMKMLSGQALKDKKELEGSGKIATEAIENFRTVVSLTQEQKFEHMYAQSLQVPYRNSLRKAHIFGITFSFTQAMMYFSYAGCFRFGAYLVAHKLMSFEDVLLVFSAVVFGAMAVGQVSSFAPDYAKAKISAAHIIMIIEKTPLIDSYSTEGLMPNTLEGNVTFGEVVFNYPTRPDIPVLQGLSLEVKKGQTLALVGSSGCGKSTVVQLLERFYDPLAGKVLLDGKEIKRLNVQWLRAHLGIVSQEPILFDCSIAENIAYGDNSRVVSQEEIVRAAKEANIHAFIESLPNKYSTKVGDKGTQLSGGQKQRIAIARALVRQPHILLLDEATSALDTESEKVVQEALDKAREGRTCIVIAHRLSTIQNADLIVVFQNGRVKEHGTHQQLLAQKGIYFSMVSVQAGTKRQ

Biological target: P-gp (Homo sapiens, UniProt P08183)
Conditions: human cDNA-P-gp membrane preparations; cited from earlier work

In the case of `CN1CC[C@]23c4c5ccc(O)c4O[C@H]2[C@@H](O)C=C[C@H]3[C@H]1C5` [morphine], the “interaction with P-gp as determined by stimulation of ATP hydrolysis” value is given as “interact/bind to P-gp”.
